Experimental data reported in patent US20040077549A1, “Inhibitors of the E2F-1/cyclin interaction for cancer therapy” (priority 2000, published 2004).
pIC50: −log10 of the molar value. Some results were stated once for a whole list of compounds, not compound by compound. At least one compound was matched to its structure with a doubt left. Where no end group is shown, it is not given here.

Biological target: E2F-1/Cyclin A interaction (Homo sapiens, UniProt P20248)
Experiment: E2F-1/Cyclin A/cdk2 ELISA
Conditions: fusion peptides; read-out: 50% inhibition on E2F-1/Cyclin A binding assay
Description: An ELISA was developed to identify antagonists of E2F-1/Cyclin A interaction. This method is based on interactions between three proteins, E2F-1, Cyclin A and cdk2 and is analyzed colorimetrically. This assay was used to determine IC50 values for various synthetic peptides that were used in biological experiments and for SAR studies.
This assay allows determination of IC50 values for various synthetic peptides that were used in biological experiments or for SAR studies.
Nunc Immulon II ELISA plates are coated overnight at 4° C. with 250 μL of […] anti-GST antibody (Pharmacia Biotech) in bicarbonate buffer. Following five washes with wash buffer consisting of 50 mM Tris (pH=7.5), 0.15 M NaCl, and 0.01% Tween-20 (TBST), non-specific sites were blocked for 2 hr at room temperature with 300 μL of assay buffer consisting of 50 mM HEPES (pH=7.5), 0.15 M NaCl, 0.1% Triton X-100, and 5% bovine serum albumin (BSA). Plates were then washed five times in TBST, aspirated dry, and treated with 100 μL of GST-E2F-1 in TBS (25 nM). GST-E2F-1 was incubated at RT for at least 1 hr with non-specific binding (NSB) control wells receiving assay buffer with no protein. […] After 10-15 min, absorbance is read using a microplate reader at 405 nm.

Sequence “RQIKIWFQNRRMKWKKPVKRRLFG [Penetratin-wt]” has a pIC50 of 6.00 to 7.00.
